{"source": "PubChem BioAssay AID720505 (Drosophila RNAi Screening Center, 2013)", "screen": "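Genes needed for store-operated calcium entry in fly cells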 (primary screen)", "cell system": "Drosophila S2R+ cells", "knock-down reagent": "long dsRNA against Drosophila genes", "challenge": "thapsigargin (2 µM) in calcium-free buffer to empty internal stores, then 2 mM calcium added back", "detection": "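Stores emptied by 2 µM thapsigargin without calcium, then 2 mM calcium re-added; fluo-4 fluorescence followed by FLIPR in 384-well plates, per-well averaged endpoint, raw; two screen passes, some wells retested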", "direction": "calcium signal: higher = more calcium entry after store depletion", "active means": "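About 1500 genes called as lowering calcium entry, by varying amounts, judged against per-plate control wells with STIM1 as positive and Rho1 as negative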", "calls": "active = called as lowering calcium entry; inactive = not called", "note": "The deposit covers about 20,000 reagents; below is a random part of those that have a named target and a result. Of all reagents, about 2,100 (10%) got an active call. 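Raw plate signals without normalisation; calls rest on control-based scores that were not deposited; replicate 2 separates called from uncalled poorly.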 A plus sign joins genes that one reagent is predicted to hit. Not stated in the record: the amount of reagent, the time to read-out."}
{"predicted target":"Lcp65Aa","DRSC id":"DRSC11209","calcium signal, replicate 1":126,"calcium signal, replicate 2":99.3,"outcome":"inactive"}
{"predicted target":"Rh4 + sina","DRSC id":"DRSC11396","calcium signal, replicate 1":121,"calcium signal, replicate 2":88.9,"outcome":"inactive"}
{"predicted target":"CG14455","DRSC id":"DRSC11712","calcium signal, replicate 1":69.5,"calcium signal, replicate 2":106,"outcome":"active"}
{"predicted target":"CG3556","DRSC id":"DRSC18309","calcium signal, replicate 1":123,"calcium signal, replicate 2":152,"outcome":"inactive"}
{"predicted target":"CG5002","DRSC id":"DRSC06911","calcium signal, replicate 1":157,"calcium signal, replicate 2":113,"outcome":"inactive"}
{"predicted target":"Adk2","DRSC id":"DRSC09827","calcium signal, replicate 1":123,"calcium signal, replicate 2":73.8,"outcome":"inactive"}
{"predicted target":"Hyccin","DRSC id":"DRSC06983","calcium signal, replicate 1":115,"calcium signal, replicate 2":92.6,"outcome":"inactive"}
{"predicted target":"sqa","DRSC id":"DRSC06693","calcium signal, replicate 1":129,"calcium signal, replicate 2":134,"outcome":"inactive"}
{"predicted target":"sqa","DRSC id":"DRSC21635","calcium signal, replicate 1":204,"calcium signal, replicate 2":123,"outcome":"inactive"}
{"predicted target":"CG32454","DRSC id":"DRSC11652","calcium signal, replicate 1":93.3,"calcium signal, replicate 2":116,"outcome":"inactive"}
{"predicted target":"CalpC","DRSC id":"DRSC19873","calcium signal, replicate 1":100,"calcium signal, replicate 2":152,"outcome":"inactive"}
{"predicted target":"G9a","DRSC id":"DRSC18619","calcium signal, replicate 1":134,"calcium signal, replicate 2":105,"outcome":"inactive"}
{"predicted target":"Fnta","DRSC id":"DRSC00557","calcium signal, replicate 1":102,"calcium signal, replicate 2":162,"outcome":"inactive"}
{"predicted target":"CG6847","DRSC id":"DRSC19213","calcium signal, replicate 1":95.6,"calcium signal, replicate 2":98.4,"outcome":"inactive"}
{"predicted target":"CG6847","DRSC id":"DRSC20009","calcium signal, replicate 1":89.7,"calcium signal, replicate 2":84.9,"outcome":"inactive"}
{"predicted target":"stck","DRSC id":"DRSC17070","calcium signal, replicate 1":167,"calcium signal, replicate 2":138,"outcome":"inactive"}
{"predicted target":"BBS4","DRSC id":"DRSC06352","calcium signal, replicate 1":117,"calcium signal, replicate 2":139,"outcome":"inactive"}
{"predicted target":"cGlr1","DRSC id":"DRSC06270","calcium signal, replicate 1":100,"calcium signal, replicate 2":108,"outcome":"inactive"}
{"predicted target":"ari-2","DRSC id":"DRSC04672","calcium signal, replicate 1":56.1,"calcium signal, replicate 2":230,"outcome":"inactive"}
